Experimental data: US9458194B2 (Lubrizol Advanced Materials, Inc., priority 2013, dated 2016)
The same purity stands for every peptide and may come from a single statement.

Columns and labels:
[1] = general procedure: Fmoc solid-phase peptide synthesis; pMBHA; conditions: whole synthesis, gradients of MeCN (+0.07% TFA) in H2O (+0.1% TFA), scale 15 mmol
[2] = general procedure: Fmoc solid-phase peptide synthesis; 2-chlorotrityl; conditions: whole synthesis, gradients of MeCN (+0.07% TFA) in H2O (+0.1% TFA), scale 33.6 mmol
[3] = general procedure: Fmoc solid-phase peptide synthesis; AM-MBHA; conditions: whole synthesis, gradients of MeCN (+0.07% TFA) in H2O (+0.1% TFA), scale of the general procedure 15 mmol

Ac-L-Lys-L-Tyr-L-Lys(Ac-L-Lys-L-Tyr)-4-Abz-NH2
crude HPLC purity [1]: exceeding 80%

Ac-L-Lys-L-His-L-Lys(Ac-L-Lys-L-His)-4-Abz-NH2
crude HPLC purity [1]: exceeding 80%

Ac-L-Asn-L-Thr-L-Lys(Ac-L-Asn-L-Thr)-4-Abz-NH2
crude HPLC purity [1]: exceeding 80%

Ac-L-Asp-L-Val-L-Lys-L-Tyr-OH (DVKY; N-acetyl)
crude HPLC purity [2]: exceeding 80%

Ac-Gly-L-Gln-L-Lys(Ac-Gly-L-Gln)-4-Abz-NH2
crude HPLC purity [3]: exceeding 80%

Ac-L-Lys-L-Cit-L-Lys(Ac-L-Lys-L-Cit)-4-Abz-NH2
crude HPLC purity [1]: exceeding 80%
